Test results from the supplement of paper PMC10849652.
The other results are listed elsewhere or left out.

Chains of the proteins cited; added tags and fusions are not shown. Lines headed by an entry give the natural chain unless they say otherwise; changes in a name come on top.
UniProt O75379: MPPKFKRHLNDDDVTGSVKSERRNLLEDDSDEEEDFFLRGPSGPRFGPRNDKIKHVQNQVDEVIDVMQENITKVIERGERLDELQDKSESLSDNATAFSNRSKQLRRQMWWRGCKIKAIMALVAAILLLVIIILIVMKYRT
UniProt Q9BV40: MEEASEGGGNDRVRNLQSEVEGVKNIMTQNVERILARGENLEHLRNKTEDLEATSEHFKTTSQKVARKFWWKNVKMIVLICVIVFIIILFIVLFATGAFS
UniProt Q92890: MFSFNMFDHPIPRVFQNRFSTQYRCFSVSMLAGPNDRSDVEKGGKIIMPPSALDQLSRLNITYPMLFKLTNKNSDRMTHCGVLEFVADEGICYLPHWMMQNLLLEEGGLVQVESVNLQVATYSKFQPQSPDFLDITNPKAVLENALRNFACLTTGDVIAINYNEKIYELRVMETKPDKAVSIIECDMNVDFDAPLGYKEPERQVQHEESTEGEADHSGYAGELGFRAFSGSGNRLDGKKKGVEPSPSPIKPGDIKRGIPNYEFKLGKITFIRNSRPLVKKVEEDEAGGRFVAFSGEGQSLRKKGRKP
UniProt Q8IX04: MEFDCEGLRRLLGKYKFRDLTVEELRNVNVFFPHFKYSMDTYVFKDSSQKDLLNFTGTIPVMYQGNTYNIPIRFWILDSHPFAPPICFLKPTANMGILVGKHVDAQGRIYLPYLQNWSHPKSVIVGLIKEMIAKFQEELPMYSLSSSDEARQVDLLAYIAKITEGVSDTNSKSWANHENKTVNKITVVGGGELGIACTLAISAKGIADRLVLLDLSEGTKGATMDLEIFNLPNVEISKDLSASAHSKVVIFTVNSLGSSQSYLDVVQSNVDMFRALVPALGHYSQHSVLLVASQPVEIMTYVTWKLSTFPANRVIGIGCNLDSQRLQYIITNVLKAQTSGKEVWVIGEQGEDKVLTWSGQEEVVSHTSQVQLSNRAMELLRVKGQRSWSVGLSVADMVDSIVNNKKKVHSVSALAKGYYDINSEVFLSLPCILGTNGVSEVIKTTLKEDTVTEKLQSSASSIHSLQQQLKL
UniProt Q16851: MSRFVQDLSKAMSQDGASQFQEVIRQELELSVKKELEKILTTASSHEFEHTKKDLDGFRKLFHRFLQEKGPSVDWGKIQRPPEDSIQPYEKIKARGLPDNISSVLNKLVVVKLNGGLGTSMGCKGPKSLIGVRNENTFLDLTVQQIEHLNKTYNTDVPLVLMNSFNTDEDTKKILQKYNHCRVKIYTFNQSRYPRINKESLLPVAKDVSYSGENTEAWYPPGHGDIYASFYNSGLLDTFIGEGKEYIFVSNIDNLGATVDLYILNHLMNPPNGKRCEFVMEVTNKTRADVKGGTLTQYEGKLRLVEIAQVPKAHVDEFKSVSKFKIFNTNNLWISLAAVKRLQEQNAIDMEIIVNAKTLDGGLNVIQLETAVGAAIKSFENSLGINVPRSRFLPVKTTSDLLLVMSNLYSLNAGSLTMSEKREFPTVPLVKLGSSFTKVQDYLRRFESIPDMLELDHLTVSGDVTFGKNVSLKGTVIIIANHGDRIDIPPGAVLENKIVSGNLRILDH
UniProt Q9UHP3: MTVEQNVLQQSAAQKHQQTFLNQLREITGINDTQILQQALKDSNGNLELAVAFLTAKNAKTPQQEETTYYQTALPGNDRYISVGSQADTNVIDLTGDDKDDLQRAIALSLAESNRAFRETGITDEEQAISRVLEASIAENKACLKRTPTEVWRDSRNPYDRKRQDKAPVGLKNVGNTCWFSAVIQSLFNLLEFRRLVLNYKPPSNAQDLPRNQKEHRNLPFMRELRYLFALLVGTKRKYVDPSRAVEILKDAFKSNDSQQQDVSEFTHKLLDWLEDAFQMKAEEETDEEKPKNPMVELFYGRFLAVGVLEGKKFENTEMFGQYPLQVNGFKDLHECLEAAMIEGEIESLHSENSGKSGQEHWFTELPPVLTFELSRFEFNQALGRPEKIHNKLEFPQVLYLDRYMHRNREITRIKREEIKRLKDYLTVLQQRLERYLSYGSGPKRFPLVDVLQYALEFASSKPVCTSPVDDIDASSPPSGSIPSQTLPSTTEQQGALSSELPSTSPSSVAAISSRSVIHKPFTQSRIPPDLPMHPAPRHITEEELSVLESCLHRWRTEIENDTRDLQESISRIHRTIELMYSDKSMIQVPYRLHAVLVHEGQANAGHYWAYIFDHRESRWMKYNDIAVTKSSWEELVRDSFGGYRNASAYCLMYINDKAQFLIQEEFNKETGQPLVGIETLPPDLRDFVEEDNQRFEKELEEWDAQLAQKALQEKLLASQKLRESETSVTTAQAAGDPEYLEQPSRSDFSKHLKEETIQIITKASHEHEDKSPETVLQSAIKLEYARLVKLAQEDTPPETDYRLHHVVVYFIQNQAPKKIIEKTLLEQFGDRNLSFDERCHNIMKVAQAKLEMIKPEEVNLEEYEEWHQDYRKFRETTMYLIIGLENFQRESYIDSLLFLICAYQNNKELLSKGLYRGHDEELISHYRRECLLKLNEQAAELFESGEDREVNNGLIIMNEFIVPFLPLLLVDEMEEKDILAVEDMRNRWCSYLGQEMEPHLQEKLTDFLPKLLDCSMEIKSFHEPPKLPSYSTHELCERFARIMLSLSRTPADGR
UniProt O95292, whole entry, looked up: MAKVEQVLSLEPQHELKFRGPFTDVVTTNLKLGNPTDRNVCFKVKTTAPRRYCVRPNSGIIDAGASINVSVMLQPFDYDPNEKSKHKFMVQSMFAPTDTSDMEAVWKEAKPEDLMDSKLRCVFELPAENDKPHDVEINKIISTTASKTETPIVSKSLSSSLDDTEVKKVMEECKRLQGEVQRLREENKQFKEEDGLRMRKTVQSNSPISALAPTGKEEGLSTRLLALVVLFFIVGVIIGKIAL
UniProt Q86UV5: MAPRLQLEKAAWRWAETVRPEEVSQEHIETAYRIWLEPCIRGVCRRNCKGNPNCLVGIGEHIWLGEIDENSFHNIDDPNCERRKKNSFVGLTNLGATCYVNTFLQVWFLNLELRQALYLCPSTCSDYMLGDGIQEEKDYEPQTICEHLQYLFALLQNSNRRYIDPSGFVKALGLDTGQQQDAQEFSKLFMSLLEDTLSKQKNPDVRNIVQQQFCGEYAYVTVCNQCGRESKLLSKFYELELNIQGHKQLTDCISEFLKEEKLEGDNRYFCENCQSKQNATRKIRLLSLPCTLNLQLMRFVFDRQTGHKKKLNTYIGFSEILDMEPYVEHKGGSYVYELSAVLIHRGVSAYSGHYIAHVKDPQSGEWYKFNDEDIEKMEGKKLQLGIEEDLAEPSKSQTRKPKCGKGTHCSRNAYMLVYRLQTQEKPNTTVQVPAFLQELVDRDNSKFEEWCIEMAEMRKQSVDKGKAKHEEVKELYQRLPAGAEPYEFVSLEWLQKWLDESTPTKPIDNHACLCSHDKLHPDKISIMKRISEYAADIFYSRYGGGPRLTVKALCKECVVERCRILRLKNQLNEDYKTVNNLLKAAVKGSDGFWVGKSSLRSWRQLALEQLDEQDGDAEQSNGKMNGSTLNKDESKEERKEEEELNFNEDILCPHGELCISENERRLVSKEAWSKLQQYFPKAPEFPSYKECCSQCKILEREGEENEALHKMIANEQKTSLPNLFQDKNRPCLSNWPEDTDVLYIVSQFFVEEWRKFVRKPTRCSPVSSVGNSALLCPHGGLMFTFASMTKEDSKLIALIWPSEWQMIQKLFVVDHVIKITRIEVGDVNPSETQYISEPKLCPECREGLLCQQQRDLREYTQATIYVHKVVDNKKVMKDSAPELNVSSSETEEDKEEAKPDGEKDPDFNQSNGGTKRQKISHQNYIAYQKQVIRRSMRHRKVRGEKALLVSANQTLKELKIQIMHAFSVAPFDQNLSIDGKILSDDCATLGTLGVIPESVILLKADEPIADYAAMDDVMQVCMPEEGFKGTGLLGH
UniProt Q9C0B0: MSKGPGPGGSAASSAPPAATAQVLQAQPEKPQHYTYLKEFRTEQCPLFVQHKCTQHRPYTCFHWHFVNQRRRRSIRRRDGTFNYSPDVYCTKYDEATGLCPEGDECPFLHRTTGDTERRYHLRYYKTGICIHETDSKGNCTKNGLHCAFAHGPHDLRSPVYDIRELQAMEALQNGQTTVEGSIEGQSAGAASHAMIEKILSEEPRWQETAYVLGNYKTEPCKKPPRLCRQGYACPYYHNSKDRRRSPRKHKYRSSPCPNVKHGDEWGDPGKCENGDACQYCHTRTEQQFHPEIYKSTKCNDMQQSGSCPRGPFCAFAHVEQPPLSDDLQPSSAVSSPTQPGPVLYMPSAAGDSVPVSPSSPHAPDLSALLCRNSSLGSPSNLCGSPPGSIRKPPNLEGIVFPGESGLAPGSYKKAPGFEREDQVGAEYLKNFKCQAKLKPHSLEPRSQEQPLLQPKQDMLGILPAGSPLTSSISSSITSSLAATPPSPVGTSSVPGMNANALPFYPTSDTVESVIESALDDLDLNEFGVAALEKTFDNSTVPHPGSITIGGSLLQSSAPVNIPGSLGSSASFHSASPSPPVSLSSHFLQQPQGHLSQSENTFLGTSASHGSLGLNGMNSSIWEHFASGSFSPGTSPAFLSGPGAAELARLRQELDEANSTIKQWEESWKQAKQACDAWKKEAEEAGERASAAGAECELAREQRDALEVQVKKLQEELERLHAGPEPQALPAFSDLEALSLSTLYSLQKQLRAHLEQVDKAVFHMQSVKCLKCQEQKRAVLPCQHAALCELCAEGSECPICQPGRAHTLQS

Assays:
Assay in all cases: log2 fold change, soluble protein after heating vs DMSO (PISA); higher = thermal stabilisation; K562 lysate, 10 uM; active = over 0.2 and 3.5 SD of the protein, either way, in both replicates (recomputed)
[1] = compound: C1=CC=C(C=C1)[C@H](COC2=CC3=C(C=C2)NC(=O)N3)NC(=O)C4=CC=CN(C4=O)CC5=CC(=C(C=C5)F)F
Method in brief: (§1)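 Thermal stability, expressed as log-two fold change relative to solvent controls, is given from duplicates. Crude K562 extract in PBS pH 7.4 with 1 mM MgCl2, at 1 mg/mL protein, was treated with 10 μM compound for 30 min and heated in aliquots for 3 min across 48°C-58°C. After pooling, adjustment to 0.5% NP-40 at 4°C and centrifugation at 21,000xg for 90 min, supernatant protein was measured by TMTpro 16plex LC-MS/MS with channel sums equalised.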

[2] = compound: CC1=C(SC2=C1C(=N[C@H](C3=NN=C(N32)C)CC(=O)N)C4=CC=C(C=C4)Cl)C
Method in brief: as §1

[3] = compound: CC1=C2C(=CC=C1)N=C(N(C2=O)C3=CC=CC=C3C)CN4C=NC5=C(N=CN=C54)N
Method in brief: as §1

[4] = compound: Cc1sc2c(c1C)C(c1ccc(Cl)cc1)=N[C@@H](CC(=O)OC(C)(C)C)c1nnc(C)n1-2
Method in brief: as §1

[5] = compound: c1ccc([C@@H]2C[C@H]2NC2CCNCC2)cc1
Method in brief: as §1

Measured: log2 fold change

VAMP4 (UniProt O75379)
inactive: [1] 0.077 | [2] -0.06 | [3] -0.004 | [4] -0.038 | [5] -0.045

VAMP8 (UniProt Q9BV40)
inactive: [1] 0.037 | [2] -0.001 | [3] -0.002 | [4] -0.019 | [5] -0.007

VEZT (UniProt F8W8C2)
inactive: [1] 0.009 | [2] -0.062 | [3] 0.01 | [5] 0.058

UFD1 isoform 1 (UniProt Q92890)
inactive: [1] 0.049 | [2] 0.012 | [3] -0.017 | [4] 0.007 | [5] -0.021

UEVLD (UniProt Q8IX04)
inactive: [1] 0.021 | [2] -0.013 | [3] -0.057 | [4] 0.009 | [5] -0.012

UGP2 (UniProt Q16851)
inactive: [1] 0.003 | [2] 0.014 | [3] -0.009 | [4] -0.014 | [5] 0.011

USP25 (UniProt Q9UHP3)
inactive: [1] -0.008 | [2] 0.013 | [3] 0.027 | [4] 0.013 | [5] 0.026

VAPB (UniProt O95292)
inactive: [1] 0.016 | [2] -0.03 | [3] 0.017 | [4] 0.053 | [5] -0.008

USP48 isoform 8 (UniProt Q86UV5)
inactive: [1] 0.006 | [2] -0.016 | [3] 0.015 | [4] 0.003 | [5] 0.035

UNK (UniProt Q9C0B0)
inactive: [1] -0.003 | [2] -0.021 | [3] -0.024 | [4] -0.028 | [5] -0.044
